Data as given in PubChem BioAssay AID1671195 (Yale University, 2021).
Here is one part, drawn at random, of about 22,000 deposited reagents. In the full data, about 1,510 (6.9%) were called active. 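Active includes knockdowns raising or lowering LDL uptake; positive z-scores mean more uptake, negative mean less.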

Aim: 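Genes whose knockdown alters LDL uptake in liver cancer cells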 (primary screen)
System: human Huh7 hepatoma cells
Knock-down reagent: siRNA pool against human genes, 18 nM
Timing: about 2 to 2.5 days of knockdown, then 8 h LDL uptake
Challenge: DiI-labelled LDL at 30 µg/ml for 8 h, in lipoprotein-deficient serum medium
Measurement: 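Per-cell DiI-LDL intensity by automated imaging; well means scaled to the plate median and given as a robust z-score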
Scale: robust z-score: higher = more LDL uptake after knockdown
Rule for the call: 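a gene counts as active if at least two replicate z-scores exceed ±2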

PHAF1 → robust z-score, replicate 1: 0.501; robust z-score, replicate 2: 0.55; robust z-score, replicate 3: -0.0153; activity call: inactive
PHB1 → robust z-score, replicate 1: -0.75; robust z-score, replicate 2: -0.885; robust z-score, replicate 3: -1.71; activity call: inactive
AHI1-DT → robust z-score, replicate 1: -0.56; robust z-score, replicate 2: -1.09; robust z-score, replicate 3: -1.13; activity call: inactive
COLEC12 → robust z-score, replicate 1: 1.94; robust z-score, replicate 2: 2.57; robust z-score, replicate 3: 2.7; activity call: active
STK11IP → robust z-score, replicate 1: 0.654; robust z-score, replicate 2: 1.38; robust z-score, replicate 3: 2.31; activity call: inactive
LOC390613 (retired record) → robust z-score, replicate 1: -1.28; robust z-score, replicate 2: -1.45; robust z-score, replicate 3: -1.46; activity call: inactive
XKRX → robust z-score, replicate 1: 1.3; robust z-score, replicate 2: 1.14; robust z-score, replicate 3: 0.534; activity call: inactive
CYB5R2 → robust z-score, replicate 1: -0.00546; robust z-score, replicate 2: 0.697; robust z-score, replicate 3: -0.616; activity call: inactive
SORCS1 → robust z-score, replicate 1: 1.84; robust z-score, replicate 2: 1.56; robust z-score, replicate 3: -2.68; activity call: inactive
LOC399986 (retired record) → robust z-score, replicate 1: -0.725; robust z-score, replicate 2: -0.836; robust z-score, replicate 3: -1.19; activity call: inactive
SOBP → robust z-score, replicate 1: 2.51; robust z-score, replicate 2: 0.127; robust z-score, replicate 3: -0.195; activity call: inactive
LPAR3 → robust z-score, replicate 1: 1.76; robust z-score, replicate 2: 3.74; robust z-score, replicate 3: 2.67; activity call: active
ZBED1 → robust z-score, replicate 1: 1.09; robust z-score, replicate 2: 0.308; robust z-score, replicate 3: 1.08; activity call: inactive
CLBA1 → robust z-score, replicate 1: 0.559; robust z-score, replicate 2: 0.744; robust z-score, replicate 3: -0.191; activity call: inactive
SMG1 → robust z-score, replicate 1: 0.455; robust z-score, replicate 2: 0.399; robust z-score, replicate 3: 0.778; activity call: inactive
LOC441853 (retired record) → robust z-score, replicate 1: 0.129; robust z-score, replicate 2: 0.135; robust z-score, replicate 3: 0.631; activity call: inactive
BTBD2 → robust z-score, replicate 1: 0.31; robust z-score, replicate 2: 0.419; robust z-score, replicate 3: 0.18; activity call: inactive
LOC441888 (retired record) → robust z-score, replicate 1: -1.25; robust z-score, replicate 2: -1.42; robust z-score, replicate 3: -1.19; activity call: inactive
VMO1 → robust z-score, replicate 1: -0.582; robust z-score, replicate 2: -0.649; robust z-score, replicate 3: -0.481; activity call: inactive
CNTROB → robust z-score, replicate 1: 0.616; robust z-score, replicate 2: 2.87; robust z-score, replicate 3: 2.4; activity call: active
GOLGA6L2 → robust z-score, replicate 1: 0.113; robust z-score, replicate 2: -0.447; robust z-score, replicate 3: 0.0109; activity call: inactive
RUSC2 → robust z-score, replicate 1: -0.0537; robust z-score, replicate 2: -1.12; robust z-score, replicate 3: -2.13; activity call: inactive
MFN2 → robust z-score, replicate 1: -0.462; robust z-score, replicate 2: -1.11; robust z-score, replicate 3: -0.111; activity call: inactive
ZNF331 → robust z-score, replicate 1: 0.827; robust z-score, replicate 2: 1.04; robust z-score, replicate 3: 1.19; activity call: inactive

Not a retest: an excerpt of the list.
CYB5R2 → robust z-score, replicate 1: -0.00546; robust z-score, replicate 2: 0.697; robust z-score, replicate 3: -0.616; activity call: inactive
SORCS1 → robust z-score, replicate 1: 1.84; robust z-score, replicate 2: 1.56; robust z-score, replicate 3: -2.68; activity call: inactive
LOC399986 (retired record) → robust z-score, replicate 1: -0.725; robust z-score, replicate 2: -0.836; robust z-score, replicate 3: -1.19; activity call: inactive
